Experimental data taken from PubChem BioAssay AID2685 (National Center for Advancing Translational Sciences (NCATS), 2010).
This is one part of the list. The main result of the screen is listed elsewhere. These columns were measured beside it and carry no call. Most of these compounds were active or inconclusive in the main read-out, so they are no random draw. Words in brackets tell the shape of the fitted curve; partial curves, single points and poor fits give uncertain potencies.

Test: qHTS Assay for Lipid Storage Modulators in Drosophila S3 Cells;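 for cell number change: cells counted by Cell Tracker Red CMTPX staining in the red channel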
Details: BODIPY lipid droplet fluorescence, 18-24 h; for cell number change: measured here: cell count max response, cells fed with added oleic acid
Method in brief: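 Laser-scanning cytometry quantifies lipid droplet accumulation (500–530 nm total intensity; droplet/cell object ratio) in oleic acid-fed (400 uM added) Drosophila S3 cells treated with a concentration series. 20 uM Triacsin C defined 100% inhibition.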

[1] = measured here: cell number channel AC50, cells fed with added oleic acid
[2] = measured here: lipid fluorescence (Fed channel) AC50, cells fed with added oleic acid

With `CC(=O)Nc1ccc(Nc2cc(C)nc3c(-c4ccc(Cl)cc4)c(C)nn23)cc1` the cell number change was -45.1%, the AC50 [1] was 18.4 µM [falling, single point] and the AC50 [2] was 20.6 µM [falling, single point].
For `Cc1ccc(NC(=O)NCc2c(C)nn(C)c2C)cc1Cl`, the AC50 [1] was 0.651 µM [rising, single point].
In the case of `COC(=O)[C@H](CC(C)C)NC(=O)NC1CCCCC1C` (some centres not stated), the AC50 [2] is reported as 0.651 µM [falling, full curve].
Work on `CC(=O)Nc1ccc(C(=O)Nc2ccc(S(=O)(=O)NCC3CCCO3)cc2)cc1` (configuration not stated) yielded a cell number change of -5.56%.
In the case of `COC(=O)c1cc(Cl)cc2c(C)c(C3(O)CCCCC3)[nH]c12`, the cell number change is reported as -10.8% and the AC50 [2] is reported as 0.58 µM [falling, single point].
For `COc1cccc(-c2nn(-c3ccccc3)cc2/C=C(\C#N)C(=O)NCCCn2ccnc2)c1`, the cell number change was 60.1% and the AC50 [1] was 8.2 µM [rising, single point].
In the case of `O=[N+]([O-])c1cc(-c2nnc(N3CCOCC3)c3ccccc23)ccc1N1CCOCC1`, the cell number change is reported as 18.5%.
Molecule `Cc1ccc(-n2c(N)c(C(=O)NCc3ccco3)sc2=S)cc1` has a cell number change of 11.6%.
For `COc1ccc(OC)c(CNc2nc3ccccc3n2CCN2CCCCC2)c1`, the cell number change was 17.8% and the AC50 [2] was 8.2 µM [rising, partial curve].
In the case of `Cc1cccc(NC(=O)COc2ccc(/C=N\n3cnnc3)cc2)c1`, the AC50 [2] is reported as 1.3 µM [rising, full curve, poor fit].
For `CCN(c1ccccc1)S(=O)(=O)c1cc(C(=O)NCc2ccco2)ccc1C`, the cell number change was 0.839% and the AC50 [2] was 8.2 µM [falling, partial curve, poor fit].
In the case of `CCOc1ccc(N=C2NC(=O)S/C2=C\c2ccc(N(C)C)cc2)cc1`, the cell number change is reported as -13.8%, the AC50 [1] is reported as 2.31 µM [falling, partial curve, poor fit] and the AC50 [2] is reported as 7.31 µM [falling, partial curve, poor fit].
With `COc1ccc(CCN(C(=O)C(F)(F)F)C(C(=O)NC2CCCC2)c2cccs2)cc1` (configuration not stated) the cell number change was -9.48%.
With `CCCc1nnc(NC(=O)c2ccc([N+](=O)[O-])cc2)s1` the cell number change was -48%, the AC50 [1] was 8.2 µM [falling, partial curve] and the AC50 [2] was 25.9 µM [falling, single point].
In the case of `CN(C)c1nc(N)nc(CSc2nc3cc(Cl)ccc3o2)n1`, the cell number change is reported as 60.8%, the AC50 [1] is reported as 6.51 µM [rising, full curve] and the AC50 [2] is reported as 5.8 µM [rising, full curve].
With `Cn1c(=O)n(C)c2cc(NC(=O)COc3ccc(F)cc3)ccc21` the AC50 [2] was 0.58 µM [falling, single point].
For `O=C1CCC(C(=O)OCc2cc(Cl)ccc2OC(F)F)N1` (configuration not stated), the cell number change was 12.5% and the AC50 [2] was 0.00461 µM [rising, full curve, poor fit].
For `CC1CCCCC1NC(=O)COC(=O)c1c2c(nc3ccccc13)/C(=C/c1ccco1)CC2` (configuration not stated), the cell number change was 3.58% and the AC50 [2] was 7.31 µM [falling, single point].
In the case of `CCOc1ccc(C2NC(=O)NC(C)=C2C(=O)OCc2ccccc2)cc1` (configuration not stated), the cell number change is reported as 3.28% and the AC50 [2] is reported as 16.4 µM [falling, single point].
For `COc1ccc(OC)c2sc(NC(=O)c3ccc(S(=O)(=O)N(C)C)cc3)nc12`, the cell number change was -35.3%, the AC50 [1] was 23.1 µM [falling, single point] and the AC50 [2] was 29.1 µM [falling, single point].
In the case of `O=C1c2ccccc2C(=O)N1CCc1nc(-c2cccnc2)no1`, the cell number change is reported as 0.879% and the AC50 [2] is reported as 3.26 µM [rising, single point].
Molecule `CN(C)S(=O)(=O)c1ccc(C(=O)NCC2(N3CCOCC3)CCCCC2)cc1` has a cell number change of 0.499%.
For `CNC(=O)c1csc(-c2cccs2)n1`, the cell number change was -7.56% and the AC50 [2] was 32.6 µM [falling, single point].
For `COC(=O)COc1ccc(S(=O)(=O)NCc2ccco2)cc1Cl`, the cell number change was -40% and the AC50 [1] was 20.6 µM [falling, partial curve].
`CCN(CC)CCCN(Cc1cc2cc(OC)ccc2[nH]c1=O)C(=O)Nc1ccc(F)cc1` showed a cell number change of -14.8%.
`COc1ccc(C(=O)c2c[nH]c(C(=O)N=CN(C)C)c2)cc1` showed a cell number change of -18.4%.
For `CCOC(=O)c1cc(NC(=O)Nc2ccccn2)c(C)nc1C`, the cell number change was -4.21% and the AC50 [2] was 0.0082 µM [falling, full curve, poor fit].
With `Cc1ccc(Oc2nc(-c3ccccc3)ncc2S(=O)(=O)c2ccc(C)cc2)cc1` the cell number change was 36.9%, the AC50 [1] was 0.082 µM [rising, partial curve, poor fit] and the AC50 [2] was 2.59 µM [rising, partial curve, poor fit].
In the case of `CCc1ccc(NC(=O)CNC(=O)c2nn(-c3ccc(OC)cc3)c(=O)c3ccccc23)cc1`, the AC50 [2] is reported as 6.51 µM [rising, single point].
In the case of `COCCOC(=O)C1=C(C)Nc2ncnn2C1c1ccccc1` (configuration not stated), the AC50 [1] is reported as 0.58 µM [rising, single point].
In the case of `Cn1c(/C=C/c2ccc(Br)cc2)c([N+](=O)[O-])c(=O)n(C)c1=O`, the AC50 [2] is reported as 6.51 µM [falling, single point].
For `Cc1ccc(C)n1-c1nn(S(=O)(=O)c2ccccc2)c2cccc(F)c12`, the cell number change was 33.3%, the AC50 [1] was 0.092 µM [rising, full curve, poor fit] and the AC50 [2] was 0.231 µM [rising, full curve, poor fit].
With `CCCCCCCCCn1c2c(c(=N)c3c1CCC3)CCCC2` the cell number change was -66.6%, the AC50 [1] was 2.06 µM [falling, full curve] and the AC50 [2] was 1.46 µM [falling, full curve].
In the case of `O=S(=O)(NCC(Nc1ccccc1)c1ccccc1)c1ccc(Cl)cc1` (configuration not stated), the cell number change is reported as -68.7%, the AC50 [1] is reported as 29.1 µM [falling, single point] and the AC50 [2] is reported as 11.6 µM [falling, single point].
For `CCN(C(=O)CSc1nc(C)nc2sc(C)c(C)c12)c1ccc(F)cc1`, the cell number change was 12.4% and the AC50 [2] was 0.326 µM [rising, partial curve, poor fit].
For `Cc1c(S(=O)(=O)N2CCCCC2)c(=O)n(C)c(=O)n1C`, the cell number change was -37.3% and the AC50 [2] was 29.1 µM [falling, partial curve, poor fit].
With `CC(N=C(NS(=O)(=O)c1ccc(Cl)cc1)c1ccccc1)C(=O)O` (configuration not stated) the cell number change was -14.9%, the AC50 [1] was 0.184 µM [falling, full curve, poor fit] and the AC50 [2] was 1.3 µM [falling, full curve, poor fit].
With `O=C(O)c1[nH]c2ccccc2c1CC(=O)N1CCN(c2ccccc2)CC1` the cell number change was 10.8%, the AC50 [1] was 0.164 µM [falling, full curve, poor fit] and the AC50 [2] was 29.1 µM [rising, single point].
For `COc1cc(C(=O)NNC(=O)NC2CCCCC2)cc(OC)c1OC`, the cell number change was -9.46% and the AC50 [2] was 14.6 µM [falling, partial curve].
In the case of `COc1ccc([C@@H]2OC2(C(N)=O)C(N)=O)cc1`, the cell number change is reported as -35.5%, the AC50 [1] is reported as 3.66 µM [falling, full curve] and the AC50 [2] is reported as 0.092 µM [falling, full curve].
With `CCCC(C)C(=O)Nc1nc(C)c(-c2csc(Nc3ccccc3OC)n2)s1` (configuration not stated) the cell number change was -35.9%, the AC50 [1] was 4.61 µM [falling, full curve] and the AC50 [2] was 4.11 µM [falling, partial curve].
`FC(F)(F)c1nnc2ccc(NCc3cccnc3)nn12` showed a cell number change of 3.91%.
For `Cn1nnc(NC(=O)c2cccc(OCc3ccccc3)c2)n1`, the cell number change was 53.3% and the AC50 [1] was 29.1 µM [rising, single point].
`COC(=O)c1sc(N2C(=O)C(O)=C(C(=O)c3ccc(C)o3)C2c2ccco2)nc1C` (configuration not stated) showed a cell number change of 14.1%.
For `CCCC(=O)NCCc1cc2ccc(OC)cc2[nH]c1=O`, the cell number change was 118%, the AC50 [1] was 14.6 µM [rising, partial curve] and the AC50 [2] was 16.4 µM [rising, partial curve].
With `CCc1nc(OCc2ccccc2)c2sc3nc4c(cc3c2n1)COC(C)(C)C4` the cell number change was -40.5% and the AC50 [1] was 23.1 µM [falling, partial curve, poor fit].
With `CCSc1nnc(NC(=O)[C@H](C)NC(=O)c2ccccc2Cl)s1` the AC50 [2] was 0.731 µM [falling, single point].
For `CCCCn1c(N)c(N(CC(C)C)C(=O)c2ccc(OCC3CCCO3)cc2)c(=O)[nH]c1=O` (configuration not stated), the cell number change was -18.7% and the AC50 [2] was 6.51 µM [falling, single point].
In the case of `CCOC(=O)CSc1nnc(-c2c[nH]c3ccccc23)o1`, the cell number change is reported as -3.85% and the AC50 [2] is reported as 0.651 µM [rising, single point].
With `COc1cc(OC)cc(C(=O)NCC(=O)OCC(=O)N2c3ccccc3NC(=O)C2(C)C)c1` the cell number change was 28.6%, the AC50 [1] was 4.61 µM [rising, full curve, poor fit] and the AC50 [2] was 0.58 µM [falling, single point].
Molecule `COCCN1CCN(C(=O)C2CCC(=O)N(CCc3cccc(F)c3)C2)CC1` (configuration not stated) has a cell number change of -0.578%.
In the case of `O=C(N1CCCCCC1)N1CCN(S(=O)(=O)N2CCCCC2)CC1`, the AC50 [2] is reported as 0.58 µM [falling, single point].
In the case of `CCN(CC(=O)Nc1ccccc1OC)C(=O)c1cccc(-n2cccc2)c1`, the cell number change is reported as 3.68% and the AC50 [2] is reported as 6.51 µM [rising, single point].
In the case of `COc1cc(/C=C/C(=O)c2ccc3c(c2)OCCO3)cc(OC)c1OC`, the cell number change is reported as 1.23% and the AC50 [2] is reported as 23.1 µM [falling, single point].
In the case of `COCc1cc(C)nc2sc(C(=O)N3CCCC3)c(N)c12`, the AC50 [2] is reported as 3.26 µM [rising, partial curve].
For `CCOC(=O)N1CCN(C(=O)CSc2nc(-c3cccc(C)c3)ns2)CC1`, the cell number change was 30.3%, the AC50 [1] was 0.517 µM [rising, partial curve] and the AC50 [2] was 25.9 µM [rising, single point].
With `CN(C)CCOc1nc(-c2ccccc2)nc2c1oc1ccccc12` the cell number change was -32.6%, the AC50 [1] was 29.1 µM [falling, single point] and the AC50 [2] was 13 µM [falling, single point].
Work on `O=c1[nH]c(=S)[nH]c(O)c1N=Nc1ccc(-c2ccccc2)cc1[N+](=O)[O-]` yielded a cell number change of -37.3%.
